Measured values as given in paper PMC3325209.

What was measured:
Assay in all cases: split reporter; BiFC with halves of citrine (YN, YC) in N. benthamiana leaves, agroinfiltration at A600 0.05, confocal microscopy at about 38 h post agroinfiltration
[1] = substrate: PIPO domain of TuMV P3N-PIPO fused to the N-terminal half of citrine (Turnip mosaic virus (TuMV))
[2] = target: P3N domain (N terminus of TuMV P3) fused to the N-terminal half of citrine (Turnip mosaic virus (TuMV))
[3] = target: TuMV P3N-PIPO fused to the N-terminal half of citrine (Turnip mosaic virus (TuMV))

B1: Arabidopsis PCaP1 fused to the C-terminal half of citrine (protein, UniProt Q96262 1-225)
chain: MGYWNSKVVPKFKKLFEKNSAKKAAAAEATKTFDESKETINKEIEEKKTELQPKVVETYEATSAEVKALVRDPKVAGLKKNSAAVQKYLEELVKIEFPGSKAVSEASSSFGAGYVAGPVTFIFEKVSVFLPEEVKTKEIPVEEVKAEEPAKTEEPAKTEGTSGEKEEIVEETKKGETPETAVVEEKKPEVEEKKEEATPAPAVVETPVKEPETTTTAPVAEPPKP
- binding [1]: binds
- binding [2]: no binding
- binding [3]: binds

These are yes or no findings as the source states them, for the method shown. Binding seen in cells or lysates may run through a third protein. For part of these data: Binding calls can cover weak binding; strength is not graded here. Tags and fused reporters may be left off the sequences shown.
